Assay results taken from PubChem BioAssay AID300 (DTP/NCI, 2004).
The list is a part of this screen's results and no random one: it gathers some chemical classes. Other doses and runs of a compound may be missing. T/C gives the treated animals as a percentage of the vehicle group. Where survival is the endpoint, this PubChem deposit counts one and a half times the control or more as active, and values a quarter to a half above the control carry no call in these data; other NCI protocols may use other cut-offs. Schedule codes are those of the source, taken here to give the interval after Q, in days (D) or hours (H), and the number of doses after X. Some T/C values are marked as having no survivor count here; that says nothing about deaths at the dose.

System: Madison 109 lung carcinoma i.m., mice, median survival
Assay: NCI In Vivo Anticancer Drug Screen. Data for tumor model Madison 109 Lung Carcinoma (intramuscular) in unknown mice
Settings: T/C endpoint: median survival time, schedule: Q01DX001 (ip), higher T/C = longer survival
Protocol: The antitumor activity of compounds was measured in mice bearing transplantable tumors. Survival or tumor size were measured and the results are expressed as the measurement made in the treated group (T) divided by the measurement made in the vehicle treated control group (C). The tumor model used in this assay is Madison 109 Lung Carcinoma (intramuscular) in unknown mice

Compound | T/C (dose: 100.0 mg/kg/injection, vehicle: Klucel (hydroxypropylcellulose) (HPC)) | T/C (dose: 200.0 mg/kg/injection, vehicle: Klucel (hydroxypropylcellulose) (HPC)) | T/C (dose: 400.0 mg/kg/injection, vehicle: Klucel (hydroxypropylcellulose) (HPC)) | T/C (dose: 800.0 mg/kg/injection, vehicle: Klucel (hydroxypropylcellulose) (HPC)) | T/C (dose: 125.0 mg/kg/injection, vehicle: saline) | T/C (dose: 250.0 mg/kg/injection, vehicle: saline) | T/C (dose: 500.0 mg/kg/injection, vehicle: saline)
NC(=O)c1[nH]cnc1/N=N\N(CCCl)CCCl | 112 % of control | 113 % of control | 105 % of control | 101 % of control | – | – | –
CNc1ccccc1.O=[N+]([O-])c1cc([N+](=O)[O-])c(O)c([N+](=O)[O-])c1 | – | – | – | – | 115 % of control [survivor count not shown] | 115 % of control [survivor count not shown] | 110 % of control [survivor count not shown]
